Patent publication US12025612B2, “Brown adipocyte progenitors in human skeletal muscle” (Energesis Pharmaceuticals, Inc., priority 2008, dated 2024)
At least one compound was matched to its structure with a doubt left.

What was measured:
[1] = test system: UCP1 mRNA expression in human skeletal muscle; assay: UCP1 mRNA expression in vastus lateralis muscle biopsies of obese type 2 diabetic patients before and after rosiglitazone, quantitative RT-PCR; assay type: in vivo; details: Patient 2; 8 weeks
Procedure: Since the PPARγ agonist rosiglitazone was a strong inducer of UCP1 mRNA expression in muscle CD34+ cells in culture, the effect of this compound in vivo in humans was investigated. Vastus lateralis muscle biopsies from 7 obese patients with type 2 diabetes mellitus treated for the management of their metabolic syndrome with rosiglitazone were used. The biopsies were obtained before and after 8 weeks of treatment with rosiglitazone (2×4 mg per day). […] In that study rosiglitazone, concomitantly with the improvement in insulin sensitivity, increased the level of expression of UCP1 in muscle by about 1.6-fold. […]
In FIG. 5, showing UCP1 mRNA levels in skeletal muscle biopsies from a patient group (n=7), “control” corresponds to levels before treatment, and “Rosi” corresponds to levels after treatment (8 weeks) with rosiglitazone. Being a longitudinal study the effect of rosiglitazone on UCP1 levels in each individual (comparison of individual values for the “control”-before and “Rosi”-after conditions) were determined. […]
Total cell RNA was prepared using the kit NucleoSpin® RNAII (Clontech, Palo Alto, Calif.) or Extract-all solution (Eurobio, Courtaboeuf, France) and quantified by Biophotometry (Biophotometer, Eppendor). […] Quantitative real-time PCR was performed using ABI rapid thermal cycler system, and a SYBR Green PCR master mix (Applied Biosystems, Foster City, Calif.). […]

[2] = Insulin resistance and diabetes of obese type 2 diabetic patients treated with rosiglitazone; assay type: in vivo, human; details: 7 obese type 2 diabetic patients; 8 weeks, 2×4 mg per day

## CN(CCOc1ccc(CC2SC(=O)NC2=O)cc1)c1ccccn1 (centres unmarked) [rosiglitazone]
[1]
  UCP1 level increase, end of treatment vs. before: no change
[2]
  patients' insulin resistance and diabetes: significant improvement
